{
  "source": "patent US11872200B2",
  "about": "“GABA agonists in the treatment of disorders associated with metabolic syndrome and GABA combinations in treatment or prophylaxis of type I diabetes” (The Regents of the University of California, priority 2010, dated 2024)",
  "tested_on": "HFD-fed mice",
  "assay": "GABA in drinking water of high fat diet (HFD) fed mice",
  "assay_type": "in vivo",
  "details": "GABA 6 mg/ml in water vs normal water",
  "experimental": "Mice were fed high fat diet (HFD) or “western diet” causing them to gain weight, become obese, and develop glucose intolerance, insulin resistance, and metabolic syndrome. The mice were provided either normal water, or water that contained GABA (6 mg/ml). The weight, food intake, water intake, glucose tolerance, insulin sensitivity and blood glucose levels of the mice was monitored over 5 months.",
  "data": [
    {"smiles": "NCCCC(=O)O", "note": "[GABA, 4-aminobutanoic acid]", "values": [
      {"measurement": "amount of food consumed", "setting": "over 5 months (FIG. 1)", "value": "no differences"},
      {"measurement": "amount of water consumed", "setting": "over 5 months (FIG. 2)", "value": "no differences"}
    ]}
  ]
}
